What was measured:
[1] = Plasma protein binding, species m; format: in vitro ADME; settings: mouse
[2] = Plasma protein binding, species h; format: in vitro ADME; settings: human
[3] = in vivo; settings: mouse, 60 mg/kg

`CCC[C@@H]1C[C@@H](C(=O)N[C@@H]([C@H]2O[C@H](SC)[C@H](O)[C@@H](O)[C@H]2O)[C@H](C)Cl)N(C)C1` [Clindamycin, clindamycin, reference compound] showed a fraction unbound [1] of 0.28, a fraction unbound [2] of 0.13 and an AUC ([3]; iv) of 2100 ± 500 ng·h/mL. It also gave a Cmax ([3]; iv) of 2900 ± 700 ng/mL, an MRT ([3]; iv) of 54 ± 18 min and an AUC ([3]; po) of 510 ± 90 ng·h/mL. For the same compound, the Cmax ([3]; po) was 520 ± 100 ng/mL.
